This is an account of results in article PMC8213027.

Protein sequences, listed by entry. Tags and fused reporters are not part of them.
UniProt Q9NTX7: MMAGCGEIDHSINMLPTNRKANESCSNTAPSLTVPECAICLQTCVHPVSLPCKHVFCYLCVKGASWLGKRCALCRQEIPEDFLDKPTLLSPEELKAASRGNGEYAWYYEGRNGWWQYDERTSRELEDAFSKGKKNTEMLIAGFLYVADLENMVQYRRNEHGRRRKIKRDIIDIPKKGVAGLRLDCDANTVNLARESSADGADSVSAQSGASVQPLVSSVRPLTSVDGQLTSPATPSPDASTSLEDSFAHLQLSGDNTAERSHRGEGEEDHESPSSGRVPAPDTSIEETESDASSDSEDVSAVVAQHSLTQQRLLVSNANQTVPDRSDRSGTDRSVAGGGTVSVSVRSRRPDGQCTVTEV

No constants are given. Whether binding was seen depends on the method and setting. Binding seen in cells or lysates may run through a third protein. Some entries that bind do so weakly or less than the wild type. Where a sequence is shown, tags or fusion partners need not be part of it.

The test concerns the target RNF146-myc (UniProt Q9NTX7). Put plainly: co-IP; 293T cells transfected with Slug-plasmid and/or RNF146-plasmid and FHL3-plasmid; RIPA lysate; magnetic beads (Anti-Myc, Anti-HA, Anti-Flag) at 4°C for 24 h, washed with TBS; Western blot. (In western blotting, separated proteins are transferred to a membrane and probed.)

B1: FHL3-HA (protein, UniProt Q13643 1-280)
chain: MSESFDCAKCNESLYGRKYIQTDSGPYCVPCYDNTFANTCAECQQLIGHDSRELFYEDRHFHEGCFRCCRCQRSLADEPFTCQDSELLCNDCYCSAFSSQCSACGETVMPGSRKLEYGGQTWHEHCFLCSGCEQPLGSRSFVPDKGAHYCVPCYENKFAPRCARCSKTLTQGGVTYRDQPWHRECLVCTGCQTPLAGQQFTSRDEDPYCVACFGELFAPKCSSCKRPIVGLGGGKYVSFEDRHWHHNCFSCARCSTSLVGQGFVPDGDQVLCQGCSQAGP
On to B1, for which the binding result is recorded as “binds”.

B2: Slug-Flag (protein, UniProt O43623 1-268)
chain: MPRSFLVKKHFNASKKPNYSELDTHTVIISPYLYESYSMPVIPQPEILSSGAYSPITVWTTAAPFHAQLPNGLSPLSGYSSSLGRVSPPPPSDTSSKDHSGSESPISDEEERLQSKLSDPHAIEAEKFQCNLCNKTYSTFSGLAKHKQLHCDAQSRKSFSCKYCDKEYVSLGALKMHIRTHTLPCVCKICGKAFSRPWLLQGHIRTHTGEKPFSCPHCNRAFADRSNLRAHLQTHSDVKKYQCKNCSKTFSRMSLLHKHEESGCCVAH
Turning to B2, the binding entry is reported as “binds”.
